The values that follow come from PMC12670160, “A drug-repurposing screen of FDA- and EMA-approved drugs identifies two NF-κB inhibitors active against eumycetoma” (Journal of Antimicrobial Chemotherapy, 2025).

Each structure is given as a SMILES string. Counter-ions that a name gives are not always drawn. Out of some 5,300 compounds screened, about 130 (2.5%) showed an effect of 50% or more. The list shows a part of the results.

The experiment has as its system M. mycetomatis strain mm55. The note with it: primary screen, metabolic activity vs growth control; 96 h, 2 µM; inhibitor.
Consider `O=C(Nc1cccnc1)N1CCC(Cc2cccc(Oc3ccc(C(F)(F)F)cn3)c2)CC1` [ONC0005062, pf3845], for which the “% viability” value turned out to be 97.33%.
Under `O=C(Nc1ccc([N+](=O)[O-])cc1Cl)c1cc(Cl)ccc1O` [niclosamide] stands 70.84%.
Under `Cc1cccc(-c2nn3c(c2-c2ccnc4ccc(C(N)=O)cc24)CCC3)n1` [ONC0004982, galunisertib ly2157299] stands 82.62%; under `C#C[C@]1(O)CC[C@H]2[C@@H]3CCC4=Cc5oncc5C[C@]4(C)[C@H]3CC[C@@]21C` [ONC0000341, danazol], 67.08%.
To `O=C(c1cc(C2CC2)on1)N(C1CCCCC1)C1CCCCC1` [ONC0000255, cym5541] belongs 74.57%; to `COc1ccc(-c2cc(=O)c3c(OC)c(OC)c(OC)c(OC)c3o2)cc1` [ONC0005052, tangeretin tangeritin], 95.15%; to `Cc1ccc(CNc2ncnc3ccc(-c4ccc(CO)o4)cc23)o1` [ONC0005070, ml167], 85.12%.
With `Cc1[nH]c(/C=C2\C(=O)Nc3ccc(F)cc32)c(C)c1C(=O)NCCN1CCCC1` [ONC0002286, toceranib phosphate], the “% viability” value worked out at 63.73%.
Under `Cc1nc(C)c(-c2ccc([C@H]3CC[C@H](CC(=O)O)CC3)cc2)nc1C(N)=O` [ONC0000747, azd7687] stands 72.19%; under `N#Cc1ncccn1` [ONC0003700, 2cyanopyrimidine], 105%.
Under `CC12CC3CC(C)(C1)CC(N)(C3)C2` [ONC0000629, memantine hydrochloride] stands 88.67%.
Under `CN1CCCN=C1/C=C/c1cccs1` [ONC0001175, pyrantel pamoate] stands 133.2%.
On to `N#Cc1c(Oc2ccc(F)c(NC(=O)Cc3cccc(C(F)(F)F)c3)c2)ccc2nc(NC(=O)C3CC3)sc12` [ONC0004387, tak632], for which the “% viability” value was found to be 113%.
Under `NS(=O)(=O)NCc1csc2ccccc12` [ONC0002615, jnj26990990] stands 78.72%; under `Cc1cc(OCc2nc(-c3ccccc3Cl)cs2)ccc1OCC(=O)O` [ONC0004227, gpr120 modulator 1], 84.58%; under `CCCCC(CC)COc1ccc(-c2nc(-c3ccc(OC)cc3)nc(-c3ccc(OCC(CC)CCCC)cc3O)n2)c(O)c1` (stereo not shown) [ONC0002354, bemotrizinol], 72.24%.
To `COc1ccc(-c2cc(=O)c3c(OC)c(OC)c(OC)c(OC)c3o2)cc1OC` [ONC0004945, nobiletin hexamethoxyflavone] belongs 107.8%; to `CCOC(=O)N1c2ccc(C(F)(F)F)cc2[C@@H](N(Cc2cc(C(F)(F)F)cc(C(F)(F)F)c2)C(=O)OC)C[C@H]1CC` [ONC0004341, torcetrapib cp529414], 107.6%.
Take `Cc1c(N)cccc1Cn1ccc(OCCc2cccs2)cc1=O` [ONC0000431, 13amino2methylbenzyl42thiophen2ylethoxy2pyridone]: the “% viability” value was found to be 70.22%.
Under `Nc1ccn([C@H]2CO[C@@H](CO)S2)c(=O)n1` [ONC0002008, apricitabine] stands 97.22%; under `NC(=O)C(c1ccccc1)(c1ccc(F)cc1)c1ccc(F)cc1` [ONC0001807, senicapoc], 117.3%; under `Cc1ccc(C(=O)Nc2cccc(C(F)(F)F)c2)cc1Nc1nc(-c2cccnc2)nc2c1cnn2C` [ONC0004595, nvpbhg712], 81.25%.
`Cc1ncc(C)n2nc([C@@H]3C[C@H]3c3nc4c5cccnc5ccn4c3C)nc12` [ONC0002274, pde10in1]: the “% viability” value amounted to 134%.
Under `C=CCN1CC[C@]23c4c5ccc(O)c4O[C@H]2C(=O)CC[C@@]3(O)[C@H]1C5` [ONC0000381, naloxone hydrochloride] stands 70.45%.
Under `O=c1cc[nH]c(=O)[nH]1` [ONC0004138, uracil] stands 94.37%.
